Data from article PMC10817170, “Effect of an NHE3 inhibitor in combination with an NPT2b inhibitor on gastrointestinal phosphate absorption in Rodent models” (PLOS ONE, 2024).

Test system: T1, NHE3
T1 construct: from tissue; host or cells: intestine of living SD rats
Assay: Sodium and phosphate excretion in urine after oral NaH2PO4 bolus in rats
Type: in vivo
Protocol: To assess sodium and phosphate absorption in rats, we took advantage of the increase in urinary sodium and phosphate excretion following an oral bolus of sodium phosphate. Thus, an LY3304000 dependent decrease in urinary sodium and phosphate excretion following an oral bolus dose of sodium phosphate is an indirect measurement of the ability of LY3304000 to inhibit sodium and phosphate absorption in intestine. A dosing solution of 3 mg/kg LY3304000 for a 10 mL/kg dose volume was formulated in 1% HEC. The subsequent dosing solutions of 1, 0.3, 0.1, 0.03, 0.01, 0.003, and 0.001 mg/kg LY3304000 were prepared by serial dilutions with 1% HEC. […] In this and subsequent studies where phosphate absorption is measured, a 4 hour fast was used which is less disruptive to the animal’s normal physiology than the 12 hours fast used to measure acute phosphate uptake into plasma. […] The net urine volume was recorded. Urinary sodium, creatinine, and phosphorus (as a measure of phosphate) were determined using a clinical biochemistry analyzer. The urinary sodium-to-creatinine and phosphorus-to-creatinine ratios were calculated and compared between vehicle and LY3304000 treated groups. The ratios of urinary-to-dietary phosphate (measured as phosphorus) and urinary-to-dietary sodium in urine were compared between vehicle and LY3304000 treated groups.

Compound: CN1Cc2c(Cl)cc(Cl)cc2[C@H](c2cccc(S(=O)(=O)NCCOCCOCCN/C(=N\C(N)=O)NCCCCN/C(=N/C(N)=O)NCCOCCOCCNS(=O)(=O)c3cccc([C@@H]4CN(C)Cc5c(Cl)cc(Cl)cc54)c3)c2)C1.Cl.Cl [LY3304000, (Z)-[[4-[[(Z)-N’-carbamoyl-N-[2-[2-[2-[[3-[(4S)-6,8-dichloro-2-methyl-3,4-dihydro-1H-isoquinolin-4-yl]phenyl]sulfonylamino]ethoxy]ethoxy]ethyl]carbamimidoyl]amino]butylamino]-[2-[2-[2-[[3-[(4S)-6,8-dichloro-2-methyl-3,4-dihydro-1H-isoquinolin-4-yl]phenyl]sulfonylamino]ethoxy]ethoxy]ethylamino]methylene]urea dihydrochloride]
- slope of the curve, urinary phosphate excretion: 1.90
- slope of the curve, urinary sodium excretion: 2.13
